Assay results as given in publication PMC8705867.
Results are given in words; binding and its absence hold for the method and conditions named. Binding seen in cells or lysates may run through a third protein. A result given as binding can be weak or reduced; the word gives no strength.

Amino acid sequences for entries named in this document (tags omitted). A change or cut given only in a name is not applied to a line headed by its entry.
UniProt Q84WN0: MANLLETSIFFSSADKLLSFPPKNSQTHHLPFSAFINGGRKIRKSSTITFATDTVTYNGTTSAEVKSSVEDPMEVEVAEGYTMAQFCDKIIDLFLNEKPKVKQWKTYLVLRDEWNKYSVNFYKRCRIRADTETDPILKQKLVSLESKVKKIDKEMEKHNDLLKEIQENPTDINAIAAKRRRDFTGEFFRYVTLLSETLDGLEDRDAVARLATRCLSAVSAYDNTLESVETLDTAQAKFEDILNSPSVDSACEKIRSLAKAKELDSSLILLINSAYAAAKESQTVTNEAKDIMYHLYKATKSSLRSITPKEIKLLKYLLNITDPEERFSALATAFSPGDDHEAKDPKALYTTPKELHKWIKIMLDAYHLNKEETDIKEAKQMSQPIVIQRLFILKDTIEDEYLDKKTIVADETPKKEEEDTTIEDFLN

Molecular target: PD1-HA tag fusion protein (Arabidopsis thaliana) (UniProt Q84WN0)
Test: co-IP; total leaf protein of two-week-old transgenic seedlings expressing PD1-HA (wild type as control); Anti-HA-tag mAb-Magnetic Beads; blots with antibodies for HA and PEP-β

B1: PEP core subunit β (protein, UniProt P50546 1-1072)
chain: MLGDEKEGTSAIPGFNQIQFEGFYRFIDQGLIEELAKFPKIEDIDHEIEFQLFVETYQLVEPLIKERDAVYESLTYSSELYVSAGLIWKTSRNMQEQRIFIGNIPLMNSLGTSIVNGIYRIVINQILQSPGIYYQSELDHNGISVYTGTIISDWGGRLELEIDKKARIWARVSRKQKISILVLSSAMGLNLREILENVCYPEIFLSFLTDKEKKKIGSKENAILEFYQQFSCVGGDPIFSESLCKELQKKFFHQRCELGRIGRRNINWRLNLNIPQNNIFLLPRDVLAAADHLIGMKFGMGTLDDMNHLKNKRIRSVADLLQDQLGLALARLENVVKGTISGAIRHKLIPTPQNLVTSTPLTTTYESFFGLHPLSQVLDRTNPLTQIVHGRKLSYLGPGGLTGRTANFRIRDIHPSHYGRICPIDTSEGINVGLIGSLSIHARIGDWGSLESPFYELFEKSKKARIRMLFLSPSQDEYYMIAAGNSLALNRGIQEEQAVPARYRQEFLTIAWEEVHLRSIFPFQYFSIGASLIPFIEHNDANRALMSSNMQRQAVPLSRSEKCIVGTGLERQVALDSGVPAIAEHEGKILYTDTEKIVFSGNGDTLSIPLIMYQRSNKNTCMHQKPQVRRGKCIKKGQILADGAATVGGELALGKNILVAYMPWEGYNFEDAVLISECLVYGDIYTSFHIRKYEIQTHVTTQGPERITKEIPHLEGRLLRNLDKNGIVMLGSWVETGDILVGKLTPQVAKESSYAPEDRLLRAILGIQVSTSKETCLKLPIGGRGRVIDVRWVQKKGGSSYNPEIIRVYISQKREIKVGDKVAGRHGNKGIISKILPRQDMPYLQDGRPVDMVFNPLGVPSRMNVGQIFECSLGLAGSLLDRHYRIAPFDERYEQEASRKLVFSELYEASKQTANPWVFEPEYPGKSRIFDGRTGDPFEQPVIIGKPYILKLIHQVDDKIHGRSSGHYALVTQQPLRGRSKQGGQRVGEMEVWALEGFGVAHILQEMLTYKSDHIRARQEVLGTTIIGGTIPKPEDAPESFRLLVRELRSLALELNHFLVSEKNFQINRKEV
binding: binds
